In patent US20180369203A1, “METHODS OF TREATING CANCER BY ADMINISTERING A MEK INHIBITOR IN COMBINATION WITH A PROTEASOME INHIBITOR” (The Jackson Laboratory, priority 2015, published 2018):
At least one structure is not confirmed: it was looked up by name or label, or the drawing left a doubt.

Tested on: A2058 cells
Test: A2058 s.c. melanoma xenograft in NOD/SCID mice
Format: in vivo
Protocol: FIGS. 6A-N show combined MEK and proteasome inhibition exerts potent tumor-suppressive effects. (A) After treatments with 20 nM AZD6244, 100 nM Bortezomib, or both for 24 hr, viable cells were quantitated by CellTiter® Blue (mean±SD, n=6, ANOVA). (B and C) 1×10^6 A2058 cells were s.c. injected into NOD/SCID mice. After 7 days, mice were treated with DMSO, 5 mg/Kg AZD6244, 0.5 mg/Kg Bortezomib, or the combination via i.p. injection three times a week. Tumor volumes were measured using a caliper weekly (mean±SEM, ANOVA). Tumor growth curves were fitted to exponential growth models to derive tumor-doubling time (DT). Kaplan-Meier survival curve was plotted for each group (Log-rank test). (D) Proteins were detected by immunoblotting, 3 tumors per group. (E) Tumor lysates were used to quantitate AOs, 5 tumors per group (mean±SD, n=3, ANOVA). […] Total CR fluorescence in each field was quantitated using ImageJ and normalized against total nuclei (median, n=50, ANOVA). […] Body weights were monitored weekly (mean±SD, n=10, ANOVA). […]
FIG. 13A-J illustrates combined MEK and proteasome inhibition disrupts proteostasis and impedes in vivo tumor growth. […] Body weights were recorded before xenografting and at sacrifice. […] Quantitation of immunoblotting results in FIG. 6D (mean±SD, n=3, ANOVA). […] Lys48-specific protein ubiquitination and caspase 3 cleavage were measured by immunoblotting in 3 spleens per group. […]

Cn1cnc2c(F)c(Nc3ccc(Br)cc3Cl)c(C(=O)NOCCO)cc21 [AZD6244, selumetinib]
growth of xenografted melanomas (5 mg/Kg AZD6244, 0.5 mg/Kg Bortezomib or combination, i.p. three times a week): no significant impacts
ubiquitination in tumors (tumor immunoblotting, 3 tumors per group): slightly elevated
